These are literature values, as cited in patent US20040132743A1, “Amorphous form of (-)-[2-[4-[(4-Chlorophenyl)-phenyl methyl]-1- piperazinyl] ethoxy] acetic acid dihydrochloride (levocetirizine dihydrochloride)” (DR. REDDY'S LABORATORIES LIMITED DR. REDDY'S LABORATORIES, …, priority 2002, published 2004).

The chains behind the UniProt entries cited, without tags or fusion partners.
UniProt P35367, whole entry: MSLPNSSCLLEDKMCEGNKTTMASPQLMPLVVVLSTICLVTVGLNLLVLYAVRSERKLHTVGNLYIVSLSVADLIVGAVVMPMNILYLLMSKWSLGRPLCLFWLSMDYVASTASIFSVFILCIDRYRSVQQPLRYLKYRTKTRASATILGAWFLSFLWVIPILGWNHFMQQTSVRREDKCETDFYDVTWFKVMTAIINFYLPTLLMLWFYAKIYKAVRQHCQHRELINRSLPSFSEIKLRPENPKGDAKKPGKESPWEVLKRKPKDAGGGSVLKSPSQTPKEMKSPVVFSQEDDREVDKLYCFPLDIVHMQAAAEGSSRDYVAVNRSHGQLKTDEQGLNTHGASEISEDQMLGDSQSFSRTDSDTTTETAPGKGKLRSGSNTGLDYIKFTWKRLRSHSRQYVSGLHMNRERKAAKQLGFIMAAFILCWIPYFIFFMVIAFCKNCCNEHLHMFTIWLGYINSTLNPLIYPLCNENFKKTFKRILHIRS

One data set concerns the target human H1 receptors (Homo sapiens, UniProt P35367). Particulars: compared with cetirizine.
For data set [1] the following is noted: in vivo.

Structures are written as SMILES.

In the case of `O=C(O)COCCN1CCN([C@H](c2ccccc2)c2ccc(Cl)cc2)CC1` [Levocetirizine], the “affinity for human H1 receptors relative to cetirizine” value at human H1 receptors is “two-fold higher”. The absorption entry in data set [1] was “rapidly and extensively absorbed”.
